Measurements reported in PubChem BioAssay AID504791 (Drosophila RNAi Screening Center, 2011)

Screen: 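Factors in Argonaute-based small RNA production and activity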 (primary screen)
Cells: Drosophila S2-derived reporter cells
Reagent: long dsRNA against Drosophila genes, about 150-250 ng dsRNA per well (siRNA assay); about 80-120 ng (miRNA assay)
Duration: about 5 days (siRNA assay); about 4 days (miRNA assay)
Treatment: copper sulfate induction of reporters: 25 µM (siRNA assay); 200 mM stated (miRNA assay), 1-2 days before reading
Measurement: 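Per-well ratio of Renilla over firefly light, expressed relative to that plate's average ratio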
Units: stable assay Renilla, run 1 in luminescence; stable assay firefly, run 1 in luminescence
Rule for the call: 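a well was a first-pass pick when its plate-scaled ratio rose above 1.5 (siRNA assay) or 1.6 (miRNA assay), or dropped below 0.6; a gene counted only if two separate dsRNAs agreed on retest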
The screen tested about 23,000 reagents; shown is a random part of those that have a named target and a result. Of all reagents, 199 (0.86%) are marked active. 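Plate-scaled ratios behind the calls are not deposited; printed light signals are raw; many rows marked increased or decreased are still called inactive.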 The numbers tell different reagents against one gene apart. Not given: the direction of the score.

target	dsRNA no.	stable siRNA reporter change	miRNA reporter change	stable assay Renilla, run 1	stable assay firefly, run 1	call
Plzf (Promyelocytic leukemia zinc finger)	1			43799	4.64e5	inactive
Blimp-1	1			6086	3.86e5	inactive
RNaseX25 (Ribonuclease X25)	1			7371	3.24e5	inactive
ath (athos)	1			7906	4.35e5	inactive
erm (earmuff)	1			13594	7.45e5	inactive
CG12910	1			9622	5.67e5	inactive
HERC2 (HECT and RLD domain containing protein 2)	1			5947	3.88e5	inactive
CG32793	1			6466	4.03e5	inactive
CG32793	2			5924	3.38e5	inactive
cold (coiled)	1			30058	3.07e5	inactive
CG33702	1			4515	2.88e5	inactive
CG5726	1	reporter ratio raised past the hit cutoff	reporter ratio raised past the hit cutoff	11460	2.69e5	active
CG5726	2		reporter ratio raised past the hit cutoff			active
CadN (Cadherin-N)	1			7086	4.33e5	inactive
TwdlF (TweedleF)	1			7326	2.99e5	inactive
Pcmt (Protein-L-isoaspartate (D-aspartate) O-methyltransferase)	1			7259	4.62e5	inactive
btsz (bitesize)	1			5651	2.69e5	inactive
btsz (bitesize)	2			7343	3.53e5	inactive
CG5510	1			6798	3.56e5	inactive
CG15800	1			6683	3.61e5	inactive
IP3K1 (Inositol 1,4,5-triphosphate kinase 1)	1			6587	4.61e5	inactive
CG6465	1			6955	3.72e5	inactive

Quoted from the entries so far for reference:
target	dsRNA no.	stable siRNA reporter change	miRNA reporter change	stable assay Renilla, run 1	stable assay firefly, run 1	call
RNaseX25 (Ribonuclease X25)	1			7371	3.24e5	inactive
ath (athos)	1			7906	4.35e5	inactive
erm (earmuff)	1			13594	7.45e5	inactive

The list goes on:
target	dsRNA no.	stable siRNA reporter change	miRNA reporter change	stable assay Renilla, run 1	stable assay firefly, run 1	call
CG7800	1			6544	4.21e5	inactive
PIG-T (Phosphatidylinositol glycan anchor biosynthesis class T)	1			5676	3.36e5	inactive
PTP-ER (Protein tyrosine phosphatase-ERK/Enhancer of Ras1)	1			9255	1.40e6	inactive
PTP-ER (Protein tyrosine phosphatase-ERK/Enhancer of Ras1)	2		reporter ratio raised past the hit cutoff	9171	5.47e5	active
CG4042	1			7454	3.61e5	inactive
CG9727	1			7364	3.72e5	inactive
CG12081	1			7801	4.61e5	inactive
CG17919	1			9171	4.03e5	inactive
sxc (super sex combs)	1			5526	2.97e5	inactive
r-l (rudimentary-like)	1			2792	3.48e5	inactive
r-l (rudimentary-like)	2	reporter ratio lowered past the hit cutoff		1432	3.47e5	inactive
AlaRS-m (Alanyl-tRNA synthetase, mitochondrial)	1			8214	3.72e5	inactive
PpD3 (Protein phosphatase D3)	1			8143	3.60e5	inactive
CG11370	1			8944	3.93e5	inactive
CG7126	1			6166	3.00e5	inactive
CG17764	1			5416	2.27e5	inactive
CG17764	2			4323	3.07e5	inactive
RpL37A (Ribosomal protein L37A)	1			10098	3.69e5	inactive
spz5 (spatzle 5)	1			10364	4.22e5	inactive
lcs (la costa)	1			5131	4.82e5	inactive
tyn (trynity)	1			4335	3.13e5	inactive
Cyp313a4 (Cytochrome P450 313a4)	1			6739	4.07e5	inactive
CG5577	1			8424	3.07e5	inactive
CG12078	1			4995	4.29e5	inactive
CG32447	1			8354	2.79e5	inactive
CG32447	2			7083	4.53e5	inactive
CG5614	1			3835	3.55e5	inactive
JMJD5 (Jumonji domain containing 5)	1			6231	4.05e5	inactive
CG6927	1			7479	4.99e5	inactive
sip2 (septin interacting protein 2)	1			7295	3.91e5	inactive
Zasp52 (Z band alternatively spliced PDZ-motif protein 52)	1			5203	2.13e5	inactive
Zasp52 (Z band alternatively spliced PDZ-motif protein 52)	2			6840	5.44e5	inactive
Rh5 (Rhodopsin 5)	1			7175	3.00e5	inactive
fzr2 (fizzy-related 2)	1			10377	1.87e6	inactive
CR31427 (pseudo)	1			5108	6.01e5	inactive
